PubChem BioAssay AID1259425, University of Nebraska Medical Center – 2018

- Assay: 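Find knockdowns that reproduce the gene expression pattern seen when KSR1 is lost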 (primary screen)
- System: HCT116 human colon cancer cells
- Reagent: siRNA pool against human genes, 50 nM siRNA
- Read-out: 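mRNA of six signature genes measured together by branched-DNA assay after 50 nM siRNA pool, blank removed, divided by geometric mean of two housekeeping genes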
- Reading the numbers: BNIP3L mRNA: higher = more BNIP3L transcript after knockdown; NDRG1 mRNA: higher = more NDRG1 transcript after knockdown; BNIP3 mRNA: higher = more BNIP3 transcript after knockdown; ALDOC mRNA: higher = more ALDOC transcript after knockdown; ACSL5 mRNA: higher = more ACSL5 transcript after knockdown
The deposit covers about 14,000 reagents; shown is a random part of them. Some reagents were tested in more than one well and are listed for each. No sequences are given here. Not stated in the record: the time to read-out.

gene | PubChem SID | BNIP3L mRNA, set 1 | NDRG1 mRNA, set 1 | BNIP3 mRNA, set 1 | ALDOC mRNA, set 1 | ACSL5 mRNA, set 1
CEBPE | SID363993023 | 0.0367 | 0.256 | 0.209 | 0.016 | 0.278
DPF1 | SID363995615 | 0.0432 | 0.182 | 0.2 | 0.0201 | 0.0781
SKI | SID363994185 | 0.088 | 0.185 | 0.261 | 0.0269 | 0.12
RABGGTA | SID363995552 | 0.0759 | 0.48 | 0.376 | 0.0424 | 0.342
DSC3 | SID363993154 | 0.0404 | 0.053 | 0.258 | 0.0191 | 0.344
ECH1 | SID363992667 | 0.127 | 0.108 | 0.324 | 0.0138 | 0.27
ZNF507 | SID364005542 | 0.0699 | 0.217 | 0.272 | 0.0145 | 0.146
SLC6A12 | SID363994193 | 0.165 | 0.0759 | 0.443 | 0.0623 | 0.194
YBX3 | SID363994726 | 0.146 | 0.123 | 0.315 | 0.00298 | 0.157
CSPP1 | SID364003061 | 0.0976 | 0.221 | 0.444 | 0.0369 | 0.145
RERGL | SID364003011 | 0.112 | 0.0906 | 0.374 | 0.0314 | 0.0858
FARP1 | SID363996647 | 0.171 | 0.16 | 0.23 | 0.00782 | 0.227
HOXB3 | SID363993350 | 0.31 | 0.204 | 0.651 | 0.0888 | 0.49
PAX3 | SID363991769 | 0.131 | 0.303 | 0.342 | 0.0153 | 0.261
FGF11 | SID363995122 | 0.156 | 0.398 | 0.25 | 0.0607 | 0.232
KCNC1 | SID363995917 | 0.201 | 0.3 | 0.35 | 0.0364 | 0.115
HYI | SID364003546 | 0.167 | 0.381 | 0.349 | 0.0217 | 0.291
SERPINA4 | SID363997040 | 0.135 | 0.132 | 0.404 | 0.039 | 0.0913
OR1J2 | SID364005499 | 0.423 | 0.46 | 0.783 | 0.084 | 0.221
OR1J2 | SID364005499 | 0.239 | 0.24 | 0.532 | 0.0986 | 0.208
GBA1 | SID363991493 | 0.0632 | 0.326 | 0.261 | 0.0263 | 0.165
SETD3 | SID364003843 | 0.271 | 0.391 | 0.273 | 0.0646 | 0.478
DGAT1 | SID363998029 | 0.154 | 0.193 | 0.182 | 0.00729 | 0.299
LIN37 | SID364001404 | 0.138 | 0.282 | 0.168 | 0.00651 | 0.148
MAP6 | SID364004306 | 0.0706 | 0.26 | 0.295 | 0.0162 | 0.0706
RPS16 | SID363992318 | 0.169 | 0.153 | 0.495 | 0.042 | 0.132
NCOR2 | SID363997134 | 0.169 | 0.112 | 0.297 | 0.00908 | 0.187
ITM2A | SID363995818 | 0.079 | 0.305 | 0.355 | 0.0575 | 0.451
PBX1 | SID363993754 | 0.0327 | 0.196 | 0.256 | 0.0193 | 0.185
DNAJC17 | SID364000836 | 0.102 | 0.58 | 0.372 | 0.0238 | 0.318
MST1R | SID363993625 | 0.0435 | 0.264 | 0.166 | 0.00924 | 0.404
BAZ2A | SID363998526 | 0.117 | 0.159 | 0.207 | 0.0114 | 0.127
KCNE3 | SID363996375 | 0.099 | 0.112 | 0.195 | 0.0175 | 0.0684
ZNF222 | SID363998468 | 0.0922 | 0.121 | 0.109 | 0.0246 | 0.123
MPP4 | SID364004308 | 0.122 | 0.0612 | 0.442 | 0.0301 | 0.138
DSCAML1 | SID364001782 | 0.153 | 0.262 | 0.315 | 0.098 | 0.232
FSHR | SID363991481 | 0.251 | 0.278 | 0.84 | 0.0598 | 0.191
BORCS8-MEF2B | SID363996788 | 0.0775 | 0.0673 | 0.257 | 0.00914 | 0.128
TMIGD3 | SID364001778 | 0.168 | 0.173 | 0.205 | 0.0412 | 0.0755
TTC3 | SID363994432 | 0.085 | 0.168 | 0.389 | 0.0278 | 0.231
SPCS3 | SID364002221 | 0.0643 | 0.09 | 0.227 | 0.019 | 0.101
CD79B | SID363991943 | 0.129 | 0.66 | 0.273 | 0.0181 | 0.365
TUBA4A | SID363996854 | 0.124 | 0.388 | 0.419 | 0.0118 | 0.245
MKLN1 | SID363998379 | 0.0732 | 0.0789 | 0.21 | 0.0101 | 0.135
RGMA | SID364001563 | 0.126 | 0.135 | 0.262 | 0.0331 | 0.225
CCDC88A | SID364000367 | 0.103 | 0.16 | 0.281 | 0.0147 | 0.151
DBF4B | SID364003250 | 0.128 | 0.193 | 0.252 | 0.0533 | 0.266
PHOX2A | SID363996096 | 0.0619 | 0.0673 | 0.269 | 0.0147 | 0.133
HERC1 | SID363994978 | 0.0665 | 0.0312 | 0.24 | 0.0231 | 0.0629
SMPD3 | SID364001166 | 0.121 | 0.237 | 0.222 | 0.0216 | 0.191
AKAP8 | SID363996732 | 0.113 | 0.57 | 0.455 | 0.0122 | 0.398
CD58 | SID363992998 | 0.241 | 0.212 | 0.592 | 0.0214 | 0.311
IL22 | SID364001723 | 0.161 | 0.202 | 0.213 | 0.0203 | 0.127
TESPA1 | SID364005512 | 0.104 | 0.139 | 0.224 | 0.035 | 0.246
FBXO9 | SID363998256 | 0.0455 | 0.754 | 0.218 | 0.0271 | 0.129
USP53 | SID364005241 | 0.0614 | 0.143 | 0.167 | 0.0327 | 0.103
H2BC21 | SID363994612 | 0.0675 | 0.774 | 0.219 | 0.00577 | 0.256
ADGB | SID364005474 | 0.0522 | 0.108 | 0.228 | 0.0445 | 0.0616
SCAND2P | SID364002289 | 0.0669 | 0.35 | 0.229 | 0.0195 | 0.221
OR6A2 | SID363994770 | 0.166 | 0.285 | 0.329 | 0.0476 | 0.138
FGF23 | SID364001742 | 0.11 | 0.0449 | 0.24 | 0.0118 | 0.204
KIF2C | SID363997609 | 0.11 | 0.244 | 0.274 | 0.0161 | 0.419
LTBR | SID363993526 | 0.0586 | 0.166 | 0.254 | 0.043 | 0.131
